# ± gives the standard deviation of the averaged measurements. Over roughly 1,600 compounds, “normalized intracellular growth (luminescence, IQM-normalized) in RAW264.7 macrophages” has its median near 1; the lowest 2% begin near 0.43. This is one part of the list.
# System: Salmonella enterica serovar Typhimurium SL1344
# Test: normalized intracellular growth (luminescence, IQM-normalized) in RAW264.7 macrophages (fraction of plate interquartile mean); higher = more bacterial growth (less inhibition)
# Settings: 10 µM
Compound,normalized intracellular growth (time point: T3 (3 h)),normalized intracellular growth (time point: Tfinal (~6 h))
Cc1c(C)c2c(c(C)c1O)CCC(C)(CCCC(C)CCCC(C)CCCC(C)C)O2 (stereo not drawn) [alpha-TOCHOPHEROL],0.999 ± 0.14,1.1 ± 0.13
CC(=O)O[C@]1(C(C)=O)CC[C@H]2[C@@H]3C=C(C)C4=CC(=O)CC[C@]4(C)[C@H]3CC[C@@]21C,0.828 ± 0.025,0.97 ± 0.073
NC[C@H]1O[C@H](O[C@H]2[C@H](O)[C@@H](O[C@H]3O[C@H](CO)[C@@H](O)[C@H](N)[C@H]3O)[C@H](N)C[C@@H]2N)[C@H](N)[C@@H](O)[C@@H]1O,0.81 ± 0.012,0.554 ± 0.025
CC[C@@]1(O)C(=O)OCc2c1cc1n(c2=O)Cc2cc3c(CN(C)C)c(O)ccc3nc2-1,1.01 ± 0.046,0.961 ± 0.047
Nc1nnc(-c2cccc(Cl)c2Cl)c(N)n1,0.926 ± 0.046,1.35 ± 0.061
Nc1nc(=O)[nH]cc1F,1.07 ± 0.058,1.28 ± 0.1
COc1ccc2cc3[n+](cc2c1OC)CCc1cc2c(cc1-3)OCO2,1.01 ± 0.041,0.957 ± 0.13
OCC(S)CS (stereo unspecified),0.927 ± 0.011,1.03 ± 0.053
O=C(c1cccnc1)N1CCOCC1,1.01 ± 0.09,0.728 ± 0.18
CC(=O)NC[C@H]1CN(c2ccc(N3CCOCC3)c(F)c2)C(=O)O1,1.05 ± 0.013,0.941 ± 0.22
NC(=O)c1cc[n+](CC2=C(C(=O)[O-])N3C(=O)[C@@H](NC(=O)Cc4cccs4)[C@H]3SC2)cc1,0.99 ± 0.024,1.12 ± 0.2
Cc1nccn1CC1CCc2c(c3ccccc3n2C)C1=O (stereo unspecified),1.09 ± 0.024,1.34 ± 0.07
O=C1C(O)=C(O)C(=O)C(O)=C1O,0.998 ± 0.096,0.863 ± 0.15
COc1ccc2c(c1)c(CC(=O)OCC(=O)O)c(C)n2C(=O)c1ccc(Cl)cc1,0.973 ± 0.022,1.02 ± 0.11
Cc1c2oc3c(C)ccc(C(=O)N[C@@H]4C(=O)N[C@H](C(C)C)C(=O)N5CCC[C@H]5C(=O)N(C)CC(=O)N(C)[C@@H](C(C)C)C(=O)O[C@@H]4C)c3nc-2c(C(=O)N[C@@H]2C(=O)N[C@H](C(C)C)C(=O)N3CCC[C@H]3C(=O)N(C)CC(=O)N(C)[C@@H](C(C)C)C(=O)O[C@@H]2C)c(N)c1=O,0.861 ± 0.057,1.05 ± 0.12
CC1=C(C(=O)O)N2C(=O)[C@@H](NC(=O)[C@H](N)c3ccccc3)[C@H]2SC1,1.017 ± 0.0017,1.07 ± 0.1
CC[C@H](C)C(=O)O[C@H]1C[C@H](O)C=C2C=C[C@H](C)[C@H](CC[C@@H](O)C[C@@H](O)CC(=O)O)[C@H]21,0.968 ± 0.022,0.99 ± 0.025
CC(C)(C)NCC(O)COc1cccc2c1CC(O)C(O)C2 (stereo unspecified),0.99 ± 0.045,1.16 ± 0.068
CC1=C(C(=O)O)N2C(=O)[C@@H](NC(=O)[C@H](N)c3ccc(O)cc3)[C@H]2SC1,0.982 ± 0.0066,0.831 ± 0.018
CC(C)(Oc1ccc(C2CC2(Cl)Cl)cc1)C(=O)O (stereo unspecified),0.988 ± 0.028,0.999 ± 0.011
C=C(NC(=O)C(=C)NC(=O)c1csc(C2=N[C@@H]3c4csc(n4)[C@H]4NC(=O)c5csc(n5)[C@H]([C@](C)(O)[C@@H](C)O)NC(=O)[C@H]5CSC(=N5)/C(=C/C)NC(=O)[C@H]([C@@H](C)O)NC(=O)c5csc(n5)[C@]3(CC2)NC(=O)[C@H](C)NC(=O)C(=C)NC(=O)[C@H](C)NC(=O)[C@H]([C@@H](C)CC)N[C@@H]2C=Cc3c([C@H](C)O)cc(nc3[C@H]2O)C(=O)O[C@@H]4C)n1)C(N)=O,0.999 ± 0.025,0.898 ± 0.21
O=C(O)CCc1nc2ccccc2[nH]1,0.989 ± 0.059,1.07 ± 0.042

# Twelve structures already listed, ordered by formula weight, ascending.
Compound,normalized intracellular growth (time point: T3 (3 h)),normalized intracellular growth (time point: Tfinal (~6 h))
OCC(S)CS (stereo unspecified),0.927 ± 0.011,1.03 ± 0.053
O=C1C(O)=C(O)C(=O)C(O)=C1O,0.998 ± 0.096,0.863 ± 0.15
O=C(O)CCc1nc2ccccc2[nH]1,0.989 ± 0.059,1.07 ± 0.042
CC(C)(Oc1ccc(C2CC2(Cl)Cl)cc1)C(=O)O (stereo unspecified),0.988 ± 0.028,0.999 ± 0.011
CC(C)(C)NCC(O)COc1cccc2c1CC(O)C(O)C2 (stereo unspecified),0.99 ± 0.045,1.16 ± 0.068
CC(=O)NC[C@H]1CN(c2ccc(N3CCOCC3)c(F)c2)C(=O)O1,1.05 ± 0.013,0.941 ± 0.22
CC1=C(C(=O)O)N2C(=O)[C@@H](NC(=O)[C@H](N)c3ccc(O)cc3)[C@H]2SC1,0.982 ± 0.0066,0.831 ± 0.018
COc1ccc2c(c1)c(CC(=O)OCC(=O)O)c(C)n2C(=O)c1ccc(Cl)cc1,0.973 ± 0.022,1.02 ± 0.11
CC[C@H](C)C(=O)O[C@H]1C[C@H](O)C=C2C=C[C@H](C)[C@H](CC[C@@H](O)C[C@@H](O)CC(=O)O)[C@H]21,0.968 ± 0.022,0.99 ± 0.025
Cc1c(C)c2c(c(C)c1O)CCC(C)(CCCC(C)CCCC(C)CCCC(C)C)O2 (stereo not drawn) [alpha-TOCHOPHEROL],0.999 ± 0.14,1.1 ± 0.13
NC(=O)c1cc[n+](CC2=C(C(=O)[O-])N3C(=O)[C@@H](NC(=O)Cc4cccs4)[C@H]3SC2)cc1,0.99 ± 0.024,1.12 ± 0.2
C=C(NC(=O)C(=C)NC(=O)c1csc(C2=N[C@@H]3c4csc(n4)[C@H]4NC(=O)c5csc(n5)[C@H]([C@](C)(O)[C@@H](C)O)NC(=O)[C@H]5CSC(=N5)/C(=C/C)NC(=O)[C@H]([C@@H](C)O)NC(=O)c5csc(n5)[C@]3(CC2)NC(=O)[C@H](C)NC(=O)C(=C)NC(=O)[C@H](C)NC(=O)[C@H]([C@@H](C)CC)N[C@@H]2C=Cc3c([C@H](C)O)cc(nc3[C@H]2O)C(=O)O[C@@H]4C)n1)C(N)=O,0.999 ± 0.025,0.898 ± 0.21

# Following part.

Compound,normalized intracellular growth (time point: T3 (3 h)),normalized intracellular growth (time point: Tfinal (~6 h))
C[C@@H]1CC2C3C[C@H](F)C4=CC(=O)C=C[C@]4(C)[C@@]3(F)[C@@H](O)C[C@]2(C)[C@@]1(O)C(=O)COC(=O)C(C)(C)C (stereo partly specified),0.961 ± 0.055,0.888 ± 0.12
NC(=O)c1cccnc1,1.01 ± 0.037,1.15 ± 0.076
Nc1nccs1,1.03 ± 0.072,0.911 ± 0.12
Cn1c(=O)c2c(ncn2CC(O)CO)n(C)c1=O (stereo unspecified),1.11 ± 0.091,1.48 ± 0.2
CCCc1nc(C(C)(C)O)c(C(=O)OCc2oc(=O)oc2C)n1Cc1ccc(-c2ccccc2-c2nnn[nH]2)cc1,1 ± 0.026,0.855 ± 0.39
CCCCCCCCCCCCCCCC[N+](C)(C)C,1.11 ± 0.042,0.724 ± 0.038
NC(=O)C1(N2CCCCC2)CCN(CCCC(=O)c2ccc(F)cc2)CC1,0.984 ± 0.085,0.965 ± 0.16
CCC(C)(C)c1ccc(CC(C)CN2C[C@@H](C)O[C@@H](C)C2)cc1 (stereo partly specified),1.02 ± 0.038,0.929 ± 0.28
CC[C@]12CCCN3CCc4c(n(c5ccccc45)[C@@](O)(C(=O)OC)C1)[C@@H]32,1.04 ± 0.081,0.962 ± 0.17
CCOc1nc2cccc(C(=O)OC(C)OC(=O)OC3CCCCC3)c2n1Cc1ccc(-c2ccccc2-c2nn[nH]n2)cc1 (stereo unspecified),0.988 ± 0.048,0.592 ± 0.089
Nc1ccc(S(N)(=O)=O)cc1,0.9673 ± 0.006,1.07 ± 0.1
CC(CCc1ccc(O)cc1)NCCc1ccc(O)c(O)c1 (stereo unspecified),0.914 ± 0.062,1.04 ± 0.14
OC[C@H]1O[C@H](O[C@H]2[C@H](O)[C@@H](O)C(O)O[C@@H]2CO)[C@H](O)[C@@H](O)[C@@H]1O (stereo partly specified),0.919 ± 0.086,0.986 ± 0.012
CN(C)CCC(c1ccccc1)c1ccccn1 (stereo unspecified),0.984 ± 0.04,0.862 ± 0.3
CC(C)CCC[C@@H](C)[C@H]1CC[C@H]2[C@@H]3CC=C4C[C@@H](O)CC[C@]4(C)[C@H]3CC[C@]12C,1.06 ± 0.037,0.958 ± 0.087
NC[C@H]1CC[C@H](C(=O)O)CC1,1 ± 0.042,0.997 ± 0.014
C=CCc1ccccc1OCC(O)CNC(C)C (stereo unspecified),0.928 ± 0.072,0.993 ± 0.11
CC(=O)OC(C)C[N+](C)(C)C (stereo unspecified),0.892 ± 0.025,1.04 ± 0.16
CCCCOc1ccc(CC(=O)NO)cc1,1.17 ± 0.03,0.901 ± 0.022
COc1ccc2nc3cc(Cl)ccc3c(Nc3cc(CN4CCCC4)c(O)c(CN4CCCC4)c3)c2n1,0.979 ± 0.051,1.08 ± 0.068
Nc1nc(=O)c2c([nH]1)NCC(CNc1ccc(C(=O)N[C@@H](CCC(=O)O)C(=O)O)cc1)N2C=O (stereo partly specified),1.02 ± 0.013,0.923 ± 0.033
